Measurements reported in publication PMC11526107.
These are yes or no findings as the source states them, for the method shown. Binding seen in cells or lysates may run through a third protein. Some entries that bind do so weakly or less than the wild type.

Target: T1, Stimulator of interferon genes (STING), endogenous in mouse peritoneal macrophages (mouse (endogenous in peritoneal macrophages)) (UniProt Q3TBT3)
T1 sequence: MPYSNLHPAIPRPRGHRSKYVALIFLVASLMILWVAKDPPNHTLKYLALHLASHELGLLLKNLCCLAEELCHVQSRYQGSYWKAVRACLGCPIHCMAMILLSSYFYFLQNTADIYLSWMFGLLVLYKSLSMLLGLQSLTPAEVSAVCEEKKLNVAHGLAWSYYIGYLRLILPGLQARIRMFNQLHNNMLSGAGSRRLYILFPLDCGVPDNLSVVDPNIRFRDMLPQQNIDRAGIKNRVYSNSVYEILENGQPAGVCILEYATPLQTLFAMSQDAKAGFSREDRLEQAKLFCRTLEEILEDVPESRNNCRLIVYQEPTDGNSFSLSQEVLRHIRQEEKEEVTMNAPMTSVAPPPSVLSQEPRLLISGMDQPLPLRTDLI
Assay: co-IP; endogenous proteins in mouse peritoneal macrophages, resting or stimulated with ISD or cGAMP; IP buffer 1.0% Nonidet P 40, 50 mM Tris-HCl pH 7.4, 50 mM EDTA, 150 mM NaCl; antibody with protein G Plus-Agarose overnight, five washes

B1: ZAPL (ZC3HAV1 long isoform), endogenous in mouse peritoneal macrophages (protein, UniProt Q3UPF5 1-996)
chain: MTDPEVFCFITKILCAHGGRMTLEELLGEISLPEAQLYELLKAAGPDRFVLLETGDQAGITRSVVATTRARVCRRKYCQRPCDSLHLCKLNLLGRCHYAQSQRNLCKYSHDVLSEQNFQVLKNHELSGLNQEELAVLLVQSDPFFMPEICKSYKGEGRKQICGQPQPCERLHICEHFTRGNCSYLNCLRSHNLMDRKVLAIMREHGLSSDVVQNIQDICNNKHTRRNPPSMRAPHPHRRGGAHRDRSKSRDRFHHNSLEVLSTVSPLGSGPPSPDVTGCKDPLEDVSADVTQKFKYLGTQDRAQLSSVSSKAAGVRGPSQMRASQEFLEDGDPDGLFSRNRSDSSTSRTSAAGFPLVAAQRNEAGAMKMGMPSGHHVEVKGKNEDIDRVPFLNSYIDGVTMEEATVSGILGKRATDNGLEEMILSSNHQKSVAKTQDPQTAGRITDSGQDTAFLHSKYEENPAWPGTSTHNGPNGFSQIMDETPNVSKSSPTGFGIKSAVTGGKEAVYSGVQSLRSHVLAMPGETTTPVQGSNRLPPSPLSSSTSHRVAASGSPGKSSTHASVSPASEPSRMMMMMSDPAEYSLCYIVNPVSPRMDDHGLKEICLDHLYRGCQQVNCNKNHFHLPYRWQLFILPTWMDFQDMEYIERAYCDPQIEIIVIEKHRINFKKMTCDSYPIRRLSTPSFVEKTLNSVFTTKWLWYWRNELNEYTQYGHESPSHTSSEINSAYLESFFHSCPRGVLQFHAGSQNYELSFQGMIQTNIASKTQRHVVRRPVFVSSKDVEQKRRGPDHQPVMPQADALTLFSSPQRNASTVSSNEYEFIELNNQDEEYAKISEQFKASMKQFKIVTIKRIWNQKLWDTFERKKQKMKNKTEMFLFHAVGRIHMDYICKNNFEWILHGNREIRYGKGNYFTKEAMYSHKSCSYDSRGTVMFVARVLVGSVIEGNMTLSSPPALYDSCVDTRLNPSVFVIFRKEQIYPEYVIEYMELEKEKGCIIS
B1 was tested, and the binding was “binds”.
